Out of some 31,000 sequences screened, about 1,400 (4.5%) were called active.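 Rule for the calls: active = median seed-adjusted z-score above 1 or below -1; inactive = the rest.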 The list shows a part of the results.

This experiment is described as follows: Novel Modifiers of Survival Motor Neuron (SMN) Protein: Gene Identification via Genome-wide siRNA Screen.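 Note: luminescence tracks full-length SMN protein made from the SMN2 reporter.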 As to conditions: HEK293T SMN2-luciferase reporter, siRNA knockdown, 72 h; actives lie on both sides. In short, it runs like this: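 Luciferase signal, proportional to full-length SMN made from an SMN2 cDNA reporter in stable HEK293T cells, was read 72 h after siRNA reverse transfection. Values were expressed as MAD scores after non-targeting-control normalization and log10 conversion; seed analysis flagged off-targets.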
(In a reporter assay the amount or activity of a reporter protein is the signal.)
With CCACCCUUCCGAGACAUGATT against TOP3B, the median seed-adjusted z-score is active: -1.11.

On to GAAUCUGAGCGAGACAAAATT against MAPK9, for which the median seed-adjusted z-score is inactive: 0.211.

As to AGAUCUUAGUAAUUACAGUTT against IL8RB, the median seed-adjusted z-score is inactive: -0.387.

For the sequence CCUUAUAAGUGUCCGUUUUTT against ZNF236, the median seed-adjusted z-score is inactive: 0.683.

As for GGAGAGAGCGCGAAACUCATT against SLC17A7, the median seed-adjusted z-score was inactive: -0.0794.

For CCUCAUCUGUGGUUACUGUTT against ZNF212, the median seed-adjusted z-score was inactive: 0.863.

Regarding GAGAAGAAGUAUUACUUAUTT against PPP1R8, the median seed-adjusted z-score is inactive: -0.029.

For the sequence GCUGAGCUGAGAAAUGCUATT against RUNX1, the median seed-adjusted z-score was inactive: -0.0264.

Take GGGUUAAUGUUGAGGAAUUTT against NME7: the median seed-adjusted z-score was inactive: -0.331.

Turning to CGGAUGCACCAGCACAACATT against NMNAT3, the median seed-adjusted z-score is inactive: 0.0197.

As for CGGACUUCGUCAACAAGUUTT against TSSK6, the median seed-adjusted z-score was inactive: -0.408.

For the sequence CCGUUUACCUGAUAAACCUTT against RXFP1, the median seed-adjusted z-score is inactive: 0.314.

As for AGAUCAAGCCCAAGAUGUUTT against HPN, the median seed-adjusted z-score was inactive: -0.0237.

Consider GUUCAGACCUUCCUACGAATT against ITGA10, for which the median seed-adjusted z-score is inactive: 0.378.

In the case of GAUCCAAAGUAACUAAACATT against HMGN3, the median seed-adjusted z-score is inactive: -0.182.

For the sequence GAACCUGGAUUCUCCCUCATT against PKMYT1, the median seed-adjusted z-score was inactive: 0.65.

In the case of GACAGAUUGUUAUAUACGATT against DYNC1I2, the median seed-adjusted z-score was inactive: -0.167.

As to UGUGGGCUACCUACACGUATT against APLNR, the median seed-adjusted z-score was inactive: 0.794.

With GGAGACCCAAUGACAUUUATT against POP7, the median seed-adjusted z-score is inactive: 0.114.

With AGAUGAUGGUGAACAACUATT against CA5A, the median seed-adjusted z-score is inactive: -0.0668.

Consider GGAUGGAAGAUAGCUUGAATT against CPEB4, for which the median seed-adjusted z-score was inactive: -0.53.

CAACCCUACCAAUAUCAGATT against GMPS: the median seed-adjusted z-score is inactive: -0.485.

Take GUAUACUCACCAUCGCUAUTT against FCAMR: the median seed-adjusted z-score is inactive: 0.137.

Take AGAGAUCUGCUAACUCAAATT against SST: the median seed-adjusted z-score is inactive: -0.043.

As to GCUCAGCAUUGUCUGCAAATT against RNASE6, the median seed-adjusted z-score was inactive: 0.832.

As to CAACUAUCUAAGAAGUAAATT against FLT3, the median seed-adjusted z-score was inactive: 0.418.

Consider CCAACAUCCUGUGAAUUUUTT against TESSP2, for which the median seed-adjusted z-score was inactive: 0.419.

For CGAACAGACGGUGCCCUAUTT against EDN3, the median seed-adjusted z-score was inactive: -0.427.

GGUGGUCUCCUUACAAUGATT against STK31: the median seed-adjusted z-score was inactive: 0.699.

Take GCAAGGAUCAGUUUCCGGATT against RHOC: the median seed-adjusted z-score was inactive: -0.579.

As for GGAACUUGCUUACAACCAATT against FPGT, the median seed-adjusted z-score is inactive: 0.36.

Regarding CGUUCUCUGUGAGAUCAUUTT against LIMK2, the median seed-adjusted z-score is inactive: -0.0288.

On to CUGAUGACCUUUUCCAGUATT against JMJD6, for which the median seed-adjusted z-score is inactive: 0.314.

Regarding CGAGUAGAGCUGAUACCAATT against PTPN14, the median seed-adjusted z-score was inactive: 0.

Consider CACACUCCCAAAGACGAUGTT against FAHD2B, for which the median seed-adjusted z-score was inactive: 0.154.

For GGAACAUUCCUGUGCAACATT against MTMR3, the median seed-adjusted z-score was inactive: 0.281.

In the case of GCAAAUGUCUUGGACAGAUTT against CHRNA7, the median seed-adjusted z-score is inactive: -0.485.

As to CGGAGAUACUGACAGAUGATT against ATP5G2, the median seed-adjusted z-score is inactive: 0.

Take GAAGGACUGAUAAAACGAUTT against GANC: the median seed-adjusted z-score was inactive: 0.799.

Turning to CCUGCAGACUUGGAAGUCATT against RSAD1, the median seed-adjusted z-score is inactive: -0.269.

GGAUCGGGUGUAUCAACAATT against SRP54: the median seed-adjusted z-score is inactive: 0.203.

As for GCCUCCACGGAAGAUGUAATT against ZNF746, the median seed-adjusted z-score is inactive: 0.1.

Consider AUAUGAGUGAGAAAGCUUATT against ZNF16, for which the median seed-adjusted z-score is inactive: 0.

As to GCUUAGAUCCUGCAGCUAUTT against POLR3A, the median seed-adjusted z-score was inactive: 0.395.

Regarding CCUCAUGCCUUAAUGAUCATT against ZNF561, the median seed-adjusted z-score is inactive: -0.00904.

As to CGGCUGGUCUUUUUACUUUTT against CACNG4, the median seed-adjusted z-score was inactive: -0.0702.

Take GGACAAAGUCCUAAAGAAATT against MGC21874: the median seed-adjusted z-score is inactive: -0.354.

On to GGAAAAUCAUUUCAUCGAATT against ZNF418, for which the median seed-adjusted z-score is inactive: 0.804.

In the case of GAACAACGGCUGAAGUUGATT against CADPS, the median seed-adjusted z-score was inactive: 0.551.

Consider GCUGGUCCAGUGGAUCUAATT against MSTN, for which the median seed-adjusted z-score was inactive: -0.639.

Turning to GUUCCUUGUUUAUGAGAAATT against SLC25A17, the median seed-adjusted z-score was inactive: 0.0311.

In the case of CCUCAACAAGUGAACUUUATT against GMDS, the median seed-adjusted z-score is inactive: 0.

For AGAACCUCCUCUACCUGUATT against DNAL4, the median seed-adjusted z-score was inactive: 0.

For GGGAUGAUAUGAAAGGAGATT against FYN, the median seed-adjusted z-score is inactive: -0.0476.

Turning to GAAGAUCAAGAAUAAGAUUTT against CREB3L2, the median seed-adjusted z-score was inactive: -0.192.

GGAGAAGCUCUAUACGAAATT against DNAJC5B: the median seed-adjusted z-score is inactive: 0.

Consider CACUCUUCCUUGUACAUAATT against ZNF37A, for which the median seed-adjusted z-score was inactive: -0.0585.

With CGACUUCACCAACCACAAUTT against PPIF, the median seed-adjusted z-score was inactive: 0.0719.

GAGCUGCAGUAAUUGUGGATT against ZFYVE27: the median seed-adjusted z-score was inactive: 0.0439.

Take GACUGUCUUUGAAAAGAGATT against HESX1: the median seed-adjusted z-score was inactive: 0.3.

Turning to AGGACAAAUUAUGAAAACATT against UBE2V2, the median seed-adjusted z-score is inactive: 0.556.

For the sequence CACCACCAUUCAUACCUCATT against RBMS2, the median seed-adjusted z-score was inactive: -0.918.

Turning to CGUCGAUUCCCAGAUCUUATT against MSH2, the median seed-adjusted z-score was inactive: 0.

Consider ACACCUUUGAUAAGAAUUATT against RAB34, for which the median seed-adjusted z-score is inactive: 0.342.

As to UGGCCUUCGUCAACAGCUGTT against GPR25, the median seed-adjusted z-score was inactive: 0.377.

Turning to CAAACUCCCGGAUCAUAGATT against CYP27A1, the median seed-adjusted z-score was inactive: -0.391.

CUCAAUUACUUCCACCUAATT against FOXR1: the median seed-adjusted z-score is inactive: -0.153.

Consider CCAAUGACAAAAUCCGUGATT against APOB, for which the median seed-adjusted z-score was inactive: -0.0862.

Turning to GGAUCUAUAGUGAUUGUCATT against TFRC, the median seed-adjusted z-score was inactive: 0.019.

Turning to AGGGAAUCCUGAGCAGACATT against VTN, the median seed-adjusted z-score is inactive: -0.435.

Take UCAACUGCCCAUACACUUATT against LOC647743: the median seed-adjusted z-score was inactive: -0.203.

As for GAAACUACCCAAAGUCGUATT against SCARF2, the median seed-adjusted z-score was inactive: 0.

With CCAAGUACCCGUUACUCAUTT against ARHGEF2, the median seed-adjusted z-score was inactive: 0.0929.

Take GGAACAGCUUAAGAUUGAATT against GNG3: the median seed-adjusted z-score is inactive: -0.186.

Consider GGAUUUGCCUUACCACUAATT against PPP2R5C, for which the median seed-adjusted z-score is active: 1.14.

GGGAGCAAAUGUUAACGCATT against ANK2: the median seed-adjusted z-score was inactive: 0.

GAUCCUUUUCAUUUCGGAATT against GMPR2: the median seed-adjusted z-score is inactive: 0.232.

Turning to GAAACCUACUUGAUCAUCATT against ZNF23, the median seed-adjusted z-score was inactive: -0.106.

Turning to GCUGCUUCUUUAUUCGGCATT against NCAM2, the median seed-adjusted z-score is inactive: 0.192.

Turning to CACUAACUGAUUUACAAGATT against UBE2J1, the median seed-adjusted z-score is active: -1.2.

As to GGAAACUUUGCAAAUGUAATT against ZNF137, the median seed-adjusted z-score is inactive: 0.0526.

Turning to CGGCUACGACGAUUACGAATT against MYO15A, the median seed-adjusted z-score is inactive: 0.0508.

For the sequence GGGAUGUCCUUAUUGCCCATT against GNS, the median seed-adjusted z-score is inactive: 0.

Take GAAGCACAGUAUAUCCGGATT against PCMTD2: the median seed-adjusted z-score is inactive: -0.0765.

With CAAUAUCUACUUAGAAGCATT against GBP7, the median seed-adjusted z-score is inactive: 0.

For GAACAACGCAAAUUUCUGATT against HS6ST2, the median seed-adjusted z-score was inactive: 0.

Take CCAGAGAAGUUUGCCCUGATT against SMARCB1: the median seed-adjusted z-score is inactive: 0.05.

For GGUGUAUUCGCCUAUGAAATT against DMPK, the median seed-adjusted z-score is inactive: -0.0417.

Turning to GCAUUGUCCGCUUCACGAATT against HCN4, the median seed-adjusted z-score was inactive: -0.282.

Consider AGACAUAGAGGACAUUAAATT against GJB6, for which the median seed-adjusted z-score is inactive: 0.0376.

For GCCCGAUGCUUUCCACAUUTT against SLC5A9, the median seed-adjusted z-score is inactive: 0.15.

For AGAUGCUUCCUAGAGGAAATT against TRIM17, the median seed-adjusted z-score was inactive: 0.574.

On to UGAUCUUUAUUCUCCGAAATT against ELOVL1, for which the median seed-adjusted z-score was inactive: 0.564.

Take GUGUAUCUAUGGAAGAGCATT against PSMD4: the median seed-adjusted z-score is active: 1.46.

On to CACCACUACUGCACCCGUATT against RGR, for which the median seed-adjusted z-score was inactive: 0.217.

As for AAAGGAUCUCUAUAUCCUATT against CARD16, the median seed-adjusted z-score was inactive: 0.57.

Consider GCAUGGAGGAUGAUGCUAUTT against SSH1, for which the median seed-adjusted z-score is inactive: 0.209.

Turning to GAAGUAAGUUUGUUGUAGATT against PGAP1, the median seed-adjusted z-score was inactive: -0.272.

Consider UCCUAUCAGAAGUUGCAUATT against RKHD4, for which the median seed-adjusted z-score was inactive: 0.0683.

With GGCAAAAAGCUGACUGAGATT against GPD1, the median seed-adjusted z-score is inactive: 0.558.

For the sequence CACCAGAACUUCCCAUUAATT against ALG8, the median seed-adjusted z-score was inactive: -0.0604.

Turning to CCGGCUACACCUUCCGUAATT against DNAJB8, the median seed-adjusted z-score was active: -1.09.

With GCUGGUUUACCAAAACAUATT against GNA14, the median seed-adjusted z-score was inactive: 0.363.

Consider UAUUCGUUCUGUACAAGGATT against LILRB5, for which the median seed-adjusted z-score is inactive: 0.834.

Consider CCAUCACUUUAAUCAAUCATT against ABCA6, for which the median seed-adjusted z-score is inactive: 0.113.

In the case of GCUCAGAUUAUGUAUUUGATT against MAT2B, the median seed-adjusted z-score is inactive: -0.554.

For CUAUGUUUCUAAGAUCAUATT against FAHD1, the median seed-adjusted z-score was inactive: -0.157.

CAACAAGUUUGACAGUCAATT against CGN: the median seed-adjusted z-score is inactive: 0.33.

(Values after PubChem BioAssay AID1347426 (Functional Genomics Laboratory (NCATS/FGL), 2020).)
